No constants are given. Whether binding was seen depends on the method and setting.

The target in the assay is Arabidopsis RAD16 (AtRAD16, At1g05120) (Arabidopsis thaliana). The assay is described as follows: two-hybrid; GAL-4 Matchmaker Gold yeast two-hybrid; haploid Y2HGold and Y187 strains mated; diploids spotted on quadruple drop-out medium (-ade -his -leu -trp), double drop-out (-trp -leu) as control; ADE2 and HIS3 reporters.

B1: Arabidopsis RAD23b (AtRAD23b, At1g79650) (protein, UniProt Q84L33 1-371)
chain: MKLTVKTLKGSHFEIRVLPSDTIMAVKKNIEDSQGKDNYPCGQQLLIHNGKVLKDETSLVENKVTEEGFLVVMLSKSKSGGSAGQASVQTSSVSQPVSATTSSTKPAAPSTTQSSPVPASPIPAQEQPAAQTDTYGQAASTLVSGSSLEQMVQQIMEMGGGSWDKETVTRALRAAYNNPERAVDYLYSGIPQTAEVAVPVPEAQIAGSGAAPVAPASGGPNSSPLDLFPQETVAAAGSGDLGTLEFLRNNDQFQQLRTMVHSNPQILQPMLQELGKQNPQLLRLIQENQAEFLQLVNEPYEGSDGEGDMFDQPEQEMPHAINVTPAEQEAIQRLEAMGFDRALVIEAFLACDRNEELAANYLLENSGDFED
Turning to B1, the binding entry is “no binding”.

B2: Arabidopsis RAD7b (AtRAD7b, At4g15475) (protein, UniProt Q9C5D2 1-610)
chain: MRGHDRINNCLPEELILEIFRRLESKPNRDACSLVCKRWLSLERFSRTTLRIGASFSPDDFISLLSRRFLYITSIHVDERISVSLPSLSPSPKRKRGRDSSSPSSSKRKKLTDKTHSGAENVESSSLTDTGLTALANGFPRIENLSLIWCPNVSSVGLCSLAQKCTSLKSLDLQGCYVGDQGLAAVGKFCKQLEELNLRFCEGLTDVGVIDLVVGCSKSLKSIGVAASAKITDLSLEAVGSHCKLLEVLYLDSEYIHDKGLIAVAQGCHRLKNLKLQCVSVTDVAFAAVGELCTSLERLALYSFQHFTDKGMRAIGKGSKKLKDLTLSDCYFVSCKGLEAIAHGCKELERVEINGCHNIGTRGIEAIGKSCPRLKELALLYCQRIGNSALQEIGKGCKSLEILHLVDCSGIGDIAMCSIAKGCRNLKKLHIRRCYEIGNKGIISIGKHCKSLTELSLRFCDKVGNKALIAIGKGCSLQQLNVSGCNQISDAGITAIARGCPQLTHLDISVLQNIGDMPLAELGEGCPMLKDLVLSHCHHITDNGLNHLVQKCKLLETCHMVYCPGITSAGVATVVSSCPHIKKVLIEKWKVTERTTRRAGSVISYLCMDL
With B2, the binding entry is on record as “no binding”.

B3: Arabidopsis DDB2 (AtDDB2, At5g58760) (protein, UniProt Q6NQ88 1-557)
chain: MSSTRSRRKRDPEIVIARDTDSELSSSEEEEEEEDNYPFSESEEEDEAVKNGGKIELEKNKAKGKAPITVKLIKKVCKVCKQPGHEAGFKGATYIDCPMKPCFLCKMPGHTTMSCPHRVVTDHGILPTSHRNTKNPIDFVFKRQLQPRIPPIKPKYVIPDQVHCAVIRYHSRRVTCLEFHPTKNNILLSGDKKGQIGVWDFGKVYEKNVYGNIHSVQVNNMRFSPTNDDMVYSASSDGTIGYTDLETGTSSTLLNLNPDGWQGANSWKMLYGMDINSEKGVVLAADNFGFLHMIDHRTNNSTGEPILIHKQGSKVCGLDCNPVQPELLLSCGNDHFARIWDMRKLQPKASLHDLAHKRVVNSAYFSPSSGTKILTTCQDNRIRIWDSIFGNLDLPSREIVHSNDFNRHLTPFKAEWDPKDTSESLIVIGRYISENYNGTALHPIDFIDASNGQLVAEVMDPNITTITPVNKLHPRDDVLASGSSRSLFIWRPQDNTEMVEEKKDKKIIICYGDSKKKGKKQKRGSDDEDDEDDIFSSKGKNIKVNKYQAKTTKKTKT
As for B3, the binding entry is reported as “no binding”.

B4: Arabidopsis RAD4 (AtRAD4) (protein, UniProt Q8W489 1-865)
chain: MKSRSESKNCRLAQASRVAVNKVLDKSSARGSRGKKKQDDNCDSAKRDKGVNGKGKQALDARLIDNVLEDRGCGNVDDDEMNDSDWEDCPIPSLDSTVDDNNVDDTRELTIEFDDDVPDAKKQKNAYRATAEDKVRAELVHKVHLLCLLARGRIVDSACNDPLIQAALLSLLPSYLTKVSNLEKVTVKDIAPLLRWVRENFSVSCSPSSEKSFRTSLAFALESRKGTAEELAALAVALLRALKLTTRFVSILDVASLKPGADRNESSGQNRAKMKHGIFRTSTLMVPKQQAISSYPKKSSSHVKNKSPFEKPQLGNPLGSDQVQDNAVNSSCEAGMSIKSDGTRRKGDVEFERQIAMALSATADNQQSSQVNNTKKVREITKISNSSSVSDQVISTAFGSKKVDSPLCWLEVYCNGENMDGKWVHVDAVNGMIDAEQNIEAAAAACKTVLRYVVAFAAGGAKDVTRRYCTKWHTISSKRVSSVWWDMVLAPLVHLESGATHDEDIALRNFNGLNPVSSRASSSSSSFGIRSALEDMELATRALTESLPTNQQAYKSHEIYAIEKWLHKNQILHPKGPVLGFCSGHPVYPRTCVQTLKTKERWLRDGLQLKANEVPSKILKRNSKFKKVKDFEDGDNNIKGGSSCMELYGKWQMEPLCLPPAVNGIVPKNERGQVDVWSEKCLPPGTVHLRFPRIFAVAKRFGIDYAPAMVGFEYRSGGATPIFEGIVVCTEFKDTILEAYAEEQEKKEEEERRRNEAQAASRWYQLLSSILTRERLKNRYANNSNDVEAKSLEVNSETVVKAKNVKAPEKQRVAKRGEKSRVRKSRNEDESHEHVFLDEEETFDEETSVKTKRCKCGFSVEVEQM
In the case of B4, the binding entry is recorded as “no binding”.

(Values after PMC10454142.)
